# These are yes or no findings as the source states them, for the method shown. Binding calls can cover weak binding; strength is not graded here. Where a sequence is shown, tags or fusion partners need not be part of it. For some of these results: Binding seen in cells or lysates may run through a third protein.
# Key:
# [1] = molecular target: OsANN4-BD (Oryza sativa L. spp. Japonica); experiment: two-hybrid; pGADT7 (AD) and pGBKT7 (BD) constructs cotransformed into AH109 yeast; growth on SD/-Leu/-Trp/-His/-Ade
# [2] = molecular target: OsANN4-GST (Oryza sativa L. spp. Japonica); experiment: pull-down; GST or OsANN4-GST incubated with OsCDPK24-His in 25 mM Tris pH 7.2, 150 mM NaCl overnight at 4°C; GST beads; washed with 0.1% NP-40; anti-His blot; both purified
# [3] = molecular target: OsANN4 (S13A)-Cluc (Oryza sativa L. spp. Japonica); experiment: split reporter; firefly luciferase complementation imaging (LCI) in tobacco (N. benthamiana) leaves, Cluc and Nluc fusions, 2.5 mM D-luciferin
# [4] = molecular target: OsANN4-Cluc (Oryza sativa L. spp. Japonica); experiment: as above
binder,measurement,setting,value
"OsCDPK24-AD (enzyme, UniProt Q53P85 1-513) MQPDPSGSGGDGNANAKAKLAPPPVTAAGGRPVSVLPHKTANVRDHYRIGKKLGQGQFGTTYLCVDKASGGEFACKSIPKRKLLCREDYEDVWREIQIMHHLSEHPNVVRIRGAYEDALFVHIVMELCAGGELFDRIVAKGHYTERAAAQLIRTIVAVVEGCHSLGVMHRDLKPENFLFASAAEDAPLKATDFGLSMFYKPGDKFSDVVGSPYYVAPEVLQKCYGPESDVWSAGVILYILLCGVPPFWAETEAGIFRQILRGKLDFESEPWPSISDSAKDLVRNMLCRDPTKRLTAHEVLCHPWIVDDAVAPDKPIDSAVLSRLKHFSAMNKLKKMALRVIAESLSEEEIGGLKELFKMIDTDDSGTITFDELKEGLKRVGSELTEHEIQALMEAADIDNSGTIDYGEFIAATLHMNKLEREENLVSAFSFFDKDGSGFITIDELSQACREFGLDDLHLEDMIKDVDQNNDGQIDYSEFTAMMRKGNAGGAGRRTMRNSLQLNLGEILNPSNS",binding,[1],binds
"OsCDPK24-His (enzyme, UniProt Q53P85 1-513) MQPDPSGSGGDGNANAKAKLAPPPVTAAGGRPVSVLPHKTANVRDHYRIGKKLGQGQFGTTYLCVDKASGGEFACKSIPKRKLLCREDYEDVWREIQIMHHLSEHPNVVRIRGAYEDALFVHIVMELCAGGELFDRIVAKGHYTERAAAQLIRTIVAVVEGCHSLGVMHRDLKPENFLFASAAEDAPLKATDFGLSMFYKPGDKFSDVVGSPYYVAPEVLQKCYGPESDVWSAGVILYILLCGVPPFWAETEAGIFRQILRGKLDFESEPWPSISDSAKDLVRNMLCRDPTKRLTAHEVLCHPWIVDDAVAPDKPIDSAVLSRLKHFSAMNKLKKMALRVIAESLSEEEIGGLKELFKMIDTDDSGTITFDELKEGLKRVGSELTEHEIQALMEAADIDNSGTIDYGEFIAATLHMNKLEREENLVSAFSFFDKDGSGFITIDELSQACREFGLDDLHLEDMIKDVDQNNDGQIDYSEFTAMMRKGNAGGAGRRTMRNSLQLNLGEILNPSNS",binding,[2],binds
"OsCDPK24-Nluc (enzyme, UniProt Q53P85 1-513) MQPDPSGSGGDGNANAKAKLAPPPVTAAGGRPVSVLPHKTANVRDHYRIGKKLGQGQFGTTYLCVDKASGGEFACKSIPKRKLLCREDYEDVWREIQIMHHLSEHPNVVRIRGAYEDALFVHIVMELCAGGELFDRIVAKGHYTERAAAQLIRTIVAVVEGCHSLGVMHRDLKPENFLFASAAEDAPLKATDFGLSMFYKPGDKFSDVVGSPYYVAPEVLQKCYGPESDVWSAGVILYILLCGVPPFWAETEAGIFRQILRGKLDFESEPWPSISDSAKDLVRNMLCRDPTKRLTAHEVLCHPWIVDDAVAPDKPIDSAVLSRLKHFSAMNKLKKMALRVIAESLSEEEIGGLKELFKMIDTDDSGTITFDELKEGLKRVGSELTEHEIQALMEAADIDNSGTIDYGEFIAATLHMNKLEREENLVSAFSFFDKDGSGFITIDELSQACREFGLDDLHLEDMIKDVDQNNDGQIDYSEFTAMMRKGNAGGAGRRTMRNSLQLNLGEILNPSNS",binding,[3],binds
same,binding,[4],binds

# From article PMC8522085
